Record: PubChem BioAssay AID652243 (Drosophila RNAi Screening Center, 2013)
In all, the deposit lists about 24,000 reagents; below is an unselected part of those that have a named target and a result. In the full data, 246 (1%) got an active call. 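Plates not normalised; calls are printed but the firefly/Renilla ratio behind them is not deposited; fold cut for lowering reported inconsistently.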 Raw values vary from plate to plate and are shown uncorrected. Names joined by + are all predicted targets of the reagent. Not given: the amount of reagent.

- Aim: 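Fly genes required for human androgen receptor driven transcription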 (primary screen)
- Cell system: Drosophila S2R+ cells
- Reagent: long dsRNA against Drosophila genes
- Duration: 72 h (48 h, then 24 h hormone)
- Conditions: synthetic androgen R1881 at 10 nM for 24 h
- Measured: 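Firefly light from an androgen-responsive reporter and Renilla control light per well, raw and unnormalised, for each of two replicates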
- Reading the numbers: firefly reporter light: higher = more light from androgen-responsive reporter; Renilla control light: higher = more constitutive control signal (cell number, transfection)
- Active means: 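Hit when the log firefly-to-Renilla ratio dropped or increased by a fixed fold versus the mean of GFP or LacZ controls across duplicate plates; lowering cut given as 1.5 and as 3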
- Meaning of the calls: active = hit: reporter lowered or raised; inactive = no hit

for [DRSC00195] gave firefly reporter light, replicate 1 = 43965; firefly reporter light, replicate 2 = 44684; Renilla control light, replicate 1 = 2.44e5; Renilla control light, replicate 2 = 1.05e5; inactive.
After knock-down of for [DRSC00818], the screen gave firefly reporter light, replicate 1 = 6.21e5; firefly reporter light, replicate 2 = 6.88e5; Renilla control light, replicate 1 = 1.49e6; Renilla control light, replicate 2 = 1.44e6; inactive.
Knock-down of for [DRSC25103] gave: firefly reporter light, replicate 1 = 5.29e5; firefly reporter light, replicate 2 = 4.21e5; Renilla control light, replicate 1 = 3.78e5; Renilla control light, replicate 2 = 3.48e5; inactive.
for [DRSC36604] scored firefly reporter light, replicate 1 = 6.65e5; firefly reporter light, replicate 2 = 6.00e5; Renilla control light, replicate 1 = 1.52e6; Renilla control light, replicate 2 = 2.03e6; inactive.
With knock-down of for [DRSC36605] the results were inactive.
After knock-down of CG13403 [DRSC19535] the results were firefly reporter light, replicate 1 = 3.72e5; firefly reporter light, replicate 2 = 4.79e5; Renilla control light, replicate 1 = 3.37e6; Renilla control light, replicate 2 = 4.32e6; inactive.
After knock-down of CG13403 [DRSC26850], the record shows firefly reporter light, replicate 1 = 2.97e5; firefly reporter light, replicate 2 = 2.18e5; Renilla control light, replicate 1 = 8.51e5; Renilla control light, replicate 2 = 7.34e5; inactive.
Against CG17059 [DRSC06654], the values are firefly reporter light, replicate 1 = 4.57e5; firefly reporter light, replicate 2 = 2.78e5; Renilla control light, replicate 1 = 2.54e6; Renilla control light, replicate 2 = 2.33e6; inactive.
Knock-down of CG15024 [DRSC08478] resulted in: firefly reporter light, replicate 1 = 1.33e5; firefly reporter light, replicate 2 = 2.08e5; Renilla control light, replicate 1 = 2.11e6; Renilla control light, replicate 2 = 2.98e6; inactive.
Depletion of Nep7 [DRSC15830] resulted in: firefly reporter light, replicate 1 = 1.38e5; firefly reporter light, replicate 2 = 81672; Renilla control light, replicate 1 = 1.87e6; Renilla control light, replicate 2 = 2.29e6; inactive.
Against Nep7 [DRSC26582], the entry reads firefly reporter light, replicate 1 = 3.19e5; firefly reporter light, replicate 2 = 3.04e5; Renilla control light, replicate 1 = 6.62e5; Renilla control light, replicate 2 = 6.09e5; inactive.

A few values from above.
Nep7 [DRSC15830], Renilla control light, replicate 2 = 2.29e6
Result of CG15024 [DRSC08478] in “firefly reporter light, replicate 1”: 1.33e5

Additional records follow.
Silencing of CG18731 [DRSC15377] resulted in: firefly reporter light, replicate 1 = 2.39e5; firefly reporter light, replicate 2 = 4.28e5; Renilla control light, replicate 1 = 2.40e6; Renilla control light, replicate 2 = 3.51e6; inactive.
Pal1 + Pdrg1 [DRSC06587] showed firefly reporter light, replicate 1 = 4.27e5; firefly reporter light, replicate 2 = 2.91e5; Renilla control light, replicate 1 = 1.82e6; Renilla control light, replicate 2 = 2.18e6; inactive.
With knock-down of CG18324 [DRSC06721], the screen gave firefly reporter light, replicate 1 = 6.88e5; firefly reporter light, replicate 2 = 7.09e5; Renilla control light, replicate 1 = 1.63e6; Renilla control light, replicate 2 = 1.44e6; inactive.
Against CG18324 [DRSC26600], the entry reads firefly reporter light, replicate 1 = 2.80e5; firefly reporter light, replicate 2 = 2.35e5; Renilla control light, replicate 1 = 5.72e5; Renilla control light, replicate 2 = 6.80e5; inactive.
For CG14070 [DRSC02373] the deposit lists firefly reporter light, replicate 1 = 2.86e5; firefly reporter light, replicate 2 = 2.77e5; Renilla control light, replicate 1 = 1.99e6; Renilla control light, replicate 2 = 2.03e6; inactive.
Knock-down of CG8435 [DRSC07179] gave: firefly reporter light, replicate 1 = 2.17e5; firefly reporter light, replicate 2 = 1.09e5; Renilla control light, replicate 1 = 5.92e5; Renilla control light, replicate 2 = 3.24e5; inactive.
CG8435 [DRSC29713] showed firefly reporter light, replicate 1 = 4.91e5; firefly reporter light, replicate 2 = 2.86e5; Renilla control light, replicate 1 = 1.50e6; Renilla control light, replicate 2 = 1.47e6; inactive.
Or24a [DRSC00768] gave firefly reporter light, replicate 1 = 1.47e5; firefly reporter light, replicate 2 = 1.56e5; Renilla control light, replicate 1 = 8.22e5; Renilla control light, replicate 2 = 9.39e5; inactive.
With knock-down of IP3K2 [DRSC19500], the record shows firefly reporter light, replicate 1 = 3.65e5; firefly reporter light, replicate 2 = 4.00e5; Renilla control light, replicate 1 = 2.70e6; Renilla control light, replicate 2 = 3.23e6; inactive.
With knock-down of IP3K2 [DRSC19747] the results were firefly reporter light, replicate 1 = 7.62e5; firefly reporter light, replicate 2 = 8.32e5; Renilla control light, replicate 1 = 3.62e6; Renilla control light, replicate 2 = 4.09e6; inactive.
IP3K2 [DRSC22614] gave firefly reporter light, replicate 1 = 5.60e5; firefly reporter light, replicate 2 = 5.31e5; Renilla control light, replicate 1 = 1.41e6; Renilla control light, replicate 2 = 1.81e6; inactive.
Against IP3K2 [DRSC24796] the deposit lists firefly reporter light, replicate 1 = 8.51e5; firefly reporter light, replicate 2 = 7.64e5; Renilla control light, replicate 1 = 7.98e5; Renilla control light, replicate 2 = 8.70e5; inactive.
After knock-down of IP3K2 [DRSC27191], the screen gave firefly reporter light, replicate 1 = 5.25e5; firefly reporter light, replicate 2 = 4.08e5; Renilla control light, replicate 1 = 6.13e5; Renilla control light, replicate 2 = 5.36e5; inactive.
Against IP3K2 [DRSC37048] the deposit lists inactive.
